Source: PubChem BioAssay AID1439 (NMMLSC, 2008)
About 770 (0.35%) of roughly 220,000 compounds were called active. Inconclusive results, whose numbers are uncertain, are shown with a selection of clear calls. Cut-off read from the data, not from the text of the source: active = binding response below about 49% or above about 150%; inconclusive = no clear call, values can overlap the other calls; inactive = in between.

Protein sequences, listed by entry. Tags and fused reporters are not part of them.
UniProt P09471, whole entry, looked up: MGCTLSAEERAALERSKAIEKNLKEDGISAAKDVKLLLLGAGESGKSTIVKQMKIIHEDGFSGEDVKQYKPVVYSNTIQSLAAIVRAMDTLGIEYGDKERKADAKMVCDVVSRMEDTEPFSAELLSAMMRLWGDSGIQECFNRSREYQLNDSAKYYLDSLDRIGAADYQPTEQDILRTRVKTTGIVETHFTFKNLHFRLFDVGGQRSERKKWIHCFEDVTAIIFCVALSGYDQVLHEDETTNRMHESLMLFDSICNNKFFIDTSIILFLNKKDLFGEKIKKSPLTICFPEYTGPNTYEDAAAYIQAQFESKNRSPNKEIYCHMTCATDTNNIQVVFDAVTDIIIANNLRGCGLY

These compounds were tested against Guanine nucleotide-binding protein G(o) subunit alpha (Homo sapiens) (UniProt P09471) (assay: RGS7-Galphao binding modulators, primary screen, biochemical, multiplexed bead flow cytometry (AID 1439;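 note: fluorescent Galphao held in activated GDP-AlF4 state binding bead-coupled RGS7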)). Conditions: at 10 µM, actives lie on both sides.
With `CCC12CN3CCN(CC(C3)/C1=N\NC(=O)c1ccc(F)cc1)C2` the binding response (% of control) was active: 43.1%. With `C/C(CCC1CC(C)OC1=O)=N\NC(N)=O` (stereo unspecified) the binding response (% of control) was inconclusive: 105%. `O=C1CCCC(=O)C1C(=O)C1CCN(S(=O)(=O)c2ccccc2)CC1` was tested, and the binding response (% of control) was inactive: 98%. For `CCC(C)(C)NC(=O)C(c1cccc(OC)c1OC)N(CCC(C)C)C(=O)CCC(=O)Nc1cc(C)on1` (stereo unspecified), the binding response (% of control) was inconclusive: 90%. For `COc1ccc(CC(=O)N/N=C/C=C/c2cccc([N+](=O)[O-])c2)cc1OC`, the binding response (% of control) was inconclusive: 101%. For `Cc1ccc(Cl)c(OC(=O)c2nn(C(C)C)c(=O)c3ccccc23)c1`, the binding response (% of control) was inactive: 101%. `CCN(CC)c1ccc(CNc2nc3ccccc3n2C(C)C)cc1` was tested, and the binding response (% of control) was inconclusive: 101%. With `C[C@@H](C(=O)N[C@@H](Cc1c[nH]c2ccccc12)C(=O)O)n1nnc2ccccc2c1=O` the binding response (% of control) was inconclusive: 131%. With `CCNC(=S)Nc1sc2c(c1C#N)CCC(C)C2` (stereo unspecified) the binding response (% of control) was inconclusive: 41.4%. With `COC(=O)c1ccsc1NC(=O)c1ccc2c(c1)OCCO2` the binding response (% of control) was inconclusive: 87.5%. In the case of `Cc1nc(-c2cc(C#N)c(=O)[nH]c2C)cs1`, the binding response (% of control) is reported as inconclusive: 107%. In the case of `CCN(CC)c1ccc(NC(=O)Cn2c(C(C)NC(=O)c3ccc(C)cc3)nc3ccccc32)cc1` (stereo unspecified), the binding response (% of control) is reported as active: 153% [activator]. With `COc1cc(C(=O)Nc2c(C)cc(C)cc2C)c(Br)c(OC)c1OC` the binding response (% of control) was inconclusive: 103%. For `O=S(=O)(NN1CCOCC1)c1ccc(Cl)s1`, the binding response (% of control) was inconclusive: 110%. With `CC(C)(C)NNC(=S)Nc1cccc(F)c1` the binding response (% of control) was inconclusive: 109%. With `COc1ccccc1NCCC(=O)O` the binding response (% of control) was inconclusive: 102%. For `CN(C)CCSc1nc(-c2ccccc2)nc2c1CCCC2`, the binding response (% of control) was inconclusive: 94.5%. In the case of `O=C(NCc1ccc(OC(F)(F)F)cc1)C1CC(c2cccc(F)c2)=NO1` (stereo unspecified), the binding response (% of control) is reported as inconclusive: 82%. In the case of `COc1cc(OC)c(NC(=O)c2ccc(F)cc2)cc1Cl`, the binding response (% of control) is reported as inconclusive: 94.6%. In the case of `COC(=O)c1sc(S(=O)(=O)N2CCN(CCO)CC2)c(C(=O)OC)c1C`, the binding response (% of control) is reported as inconclusive: 93.5%. For `O=C1N/C(=N\N=C\c2ccco2)SC1Cc1ccccc1[N+](=O)[O-]` (stereo unspecified), the binding response (% of control) was inconclusive: 97.9%. In the case of `O=C(CCS(=O)(=O)c1ccccc1Cl)Nc1ccc(S(=O)(=O)Nc2ncccn2)cc1`, the binding response (% of control) is reported as inconclusive: -170%. With `O=C(N/N=C/c1ccccc1F)NC1CCCCC1` the binding response (% of control) was inactive: 93.9%. For `COc1ccc(/C=N/N(C(C)=O)c2nc(-c3ccc(C)cc3)cs2)cc1`, the binding response (% of control) was inactive: 97.8%. With `CCOc1ccc(N2CC(O)=C(c3nc4ccccc4c(=O)[nH]3)C2=N)cc1` the binding response (% of control) was inconclusive: 65.2%. For `C/C(CC(=O)Nc1ccc(C)c(Cl)c1)=N\NC(=O)Cc1cccs1`, the binding response (% of control) was inconclusive: 103%. With `COc1ccc(Br)c(C(=O)NC(C)(C)CO)c1` the binding response (% of control) was inconclusive: 210%. `O=C(c1ccccc1)c1c[nH]c(C(=O)C(Cl)(Cl)Cl)c1` was tested, and the binding response (% of control) was inconclusive: 91.2%. In the case of `Cc1noc(C)c1-c1nc(CS(=O)(=O)c2ccc(F)cc2)no1`, the binding response (% of control) is reported as inconclusive: 83.5%. For `CC(C(c1cccs1)c1c(N)n(C)c(=O)n(C)c1=O)[N+](=O)[O-]` (stereo unspecified), the binding response (% of control) was inconclusive: 105%. With `CCOc1ccc(NC(=S)N2CCn3c(nc4ccccc43)C2)cc1` the binding response (% of control) was inconclusive: 107%. In the case of `O=C(CN(C(=O)CSc1nc2ccccc2o1)c1ccccc1F)NC1CCCCC1`, the binding response (% of control) is reported as inactive: 96%. For `O=C1NC[C@H](Cc2ccccc2)N(CC2CCCCC2)C1=O`, the binding response (% of control) was inconclusive: 98.2%. In the case of `C[C@H](NC(=O)OC(C)(C)C)C(=O)N/N=C/c1ccc2nccnc2c1`, the binding response (% of control) is reported as inconclusive: 89%. With `COc1ccc(CCNc2c([N+](=O)[O-])c(=O)oc3ccccc23)cc1OC` the binding response (% of control) was inactive: 98.8%. For `CN(C(=O)Nc1cnc2ccccc2c1)c1ccccc1`, the binding response (% of control) was inconclusive: 95%. In the case of `C/C(=N\NC(=S)Nc1ccccc1C)C1Cc2ccccc2C(=O)O1` (stereo unspecified), the binding response (% of control) is reported as inconclusive: 131%. For `CCCCNC(=S)Nc1ccc(Oc2ccccc2)cc1`, the binding response (% of control) was inconclusive: 92.6%. With `CSCCC(NS(=O)(=O)c1ccc(C)c(C(=O)O)c1)C(=O)O` (stereo unspecified) the binding response (% of control) was inconclusive: 109%. For `Cn1c(=O)c2c(nc(NCCCO)n2Cc2cccc(Br)c2)n(C)c1=O`, the binding response (% of control) was inactive: 102%. With `CC(Nc1nc(N2CCOCC2)nc2ccccc12)c1ccccc1` (stereo unspecified) the binding response (% of control) was inactive: 103%. With `COc1ccccc1C1CC(c2ccccc2)=NN1S(=O)(=O)c1ccccc1` (stereo unspecified) the binding response (% of control) was inconclusive: 65%. In the case of `CC(C)NC(=S)Nc1c(N)[nH]c(=O)[nH]c1=O`, the binding response (% of control) is reported as inconclusive: -2.86%. `Cc1ccc(CC(=O)O/N=C(\N)Cc2ccc([N+](=O)[O-])cc2)cc1` was tested, and the binding response (% of control) was inactive: 88.2%. In the case of `CC1(C)CC2=C(CO1)C(=S)NC(c1ccccc1)N2CC1CCCO1` (stereo unspecified), the binding response (% of control) is reported as inconclusive: 100%. In the case of `O=C(O)c1ccc(Cn2cc(C(F)(F)F)ccc2=O)cc1`, the binding response (% of control) is reported as inconclusive: 110%. `Cc1cc(NCCc2ccc(Cl)cc2)n2ncnc2n1` was tested, and the binding response (% of control) was inconclusive: 91.2%. `CCN1CCN(CCCNC(=O)C2c3ccccc3C(=O)N(c3ccc(OC)cc3)C2c2ccc(OC)cc2)CC1` (stereo unspecified) was tested, and the binding response (% of control) was inconclusive: 120%. For `COc1cc(OC)cc(C(=O)Nc2ccc(CN3CCCCC3)cc2)c1`, the binding response (% of control) was inconclusive: 97.7%. For `Cn1c(=O)c(Oc2ccc(Cl)cc2)c(O)c2ccccc21`, the binding response (% of control) was inactive: 102%. With `O=C1OCC(CO)(CO)N=C1NNc1ccccc1[N+](=O)[O-]` the binding response (% of control) was inconclusive: 87.1%. For `Cc1cc(C)c2c(CCl)cc(=O)oc2c1`, the binding response (% of control) was inconclusive: 124%. With `CCn1c(SCC(=O)N2CC(=O)Nc3ccccc32)nnc1-c1ccoc1C` the binding response (% of control) was inactive: 98.9%. With `COC(=O)c1cc(S(=O)(=O)Nc2nn(C)c3ccccc23)oc1C` the binding response (% of control) was inconclusive: 23.1%. In the case of `C=CCNC(=S)NC(=O)c1oc2ccccc2c1C`, the binding response (% of control) is reported as inconclusive: 101%. `CCOc1ccccc1C(=O)NC(C(=O)Nc1cccnc1)C(C)C` (stereo unspecified) was tested, and the binding response (% of control) was inconclusive: 91.3%. With `Cc1cc(N2C(=O)c3ccccc3C2=O)n(C)n1` the binding response (% of control) was inconclusive: 33.5%. With `O=C(C1=C[C@H](c2ccc3c(c2)OCO3)C[C@H](OCc2ccc(CO)cc2)O1)N1CCN(Cc2ccc3c(c2)OCO3)CC1` the binding response (% of control) was inactive: 67.4%. With `Cc1ccc(C(=O)NC(=S)Nc2cc(-c3nc4ccccc4s3)ccc2C)cc1` the binding response (% of control) was inactive: 99.8%. In the case of `CC(=O)c1ccc(NC(=O)C2CCN(S(=O)(=O)c3cccs3)CC2)cc1`, the binding response (% of control) is reported as inconclusive: 119%. For `CC12CCC(C(=O)O)(c3nc4cc([N+](=O)[O-])ccc4nc31)C2(C)C` (stereo unspecified), the binding response (% of control) was inconclusive: 126%. For `S=C(NCc1ccccc1)N1CCN(c2cccc(Cl)c2)CC1`, the binding response (% of control) was inconclusive: 90%. In the case of `COc1ccc(S(=O)(=O)N2CCOCC2)cc1NC(=O)CCc1c[nH]c2ccccc12`, the binding response (% of control) is reported as inconclusive: 91%. With `CC12CCC(C(=O)Nc3nc4ccccc4s3)(OC1=O)C2(C)C` (stereo unspecified) the binding response (% of control) was inactive: 103%. `CCC(C)c1ccc(NC(=S)NCCn2cc(Cl)cn2)cc1` (stereo unspecified) was tested, and the binding response (% of control) was inactive: 92.6%. With `O=C(CCCC(=O)OCC(F)(F)C(F)F)Nc1ccccc1F` the binding response (% of control) was inactive: 99%. `CCN(c1ccccc1)S(=O)(=O)c1ccc(Cl)c(C(=O)N(CC2CCCO2)C2CCS(=O)(=O)C2)c1` (stereo unspecified) was tested, and the binding response (% of control) was inconclusive: 105%. For `O=C1Nc2ccccc2S/C1=C/c1cccs1`, the binding response (% of control) was inconclusive: 111%. `CCCCC1=CC2=C(c3ccco3)C(=O)C(C)(OC(=O)c3ccc(OC)cc3)C(=O)C2=CN1Cc1ccco1` (stereo unspecified) was tested, and the binding response (% of control) was inconclusive: 93.2%. In the case of `CC(NC(=O)COC(=O)Cc1ccsc1)C1CC2CCC1C2` (stereo unspecified), the binding response (% of control) is reported as inactive: 88.8%. For `COc1ccccc1NC(=O)CCSc1nc(C)cc(C)n1`, the binding response (% of control) was inactive: 95.2%. In the case of `N#Cc1cccc(Cn2cc(C(F)(F)F)ccc2=O)c1`, the binding response (% of control) is reported as inconclusive: 136%. `Cc1cccc(OCC(=O)NCC(=O)N/N=C/c2cccnc2)c1` was tested, and the binding response (% of control) was inconclusive: 196%. `O=C(O)c1ccc(Nc2nc(-c3ccccc3)c3ccccc3n2)cc1` was tested, and the binding response (% of control) was inconclusive: 100%. With `O=C(O)Cn1cnc2c(=S)nc[nH]c21` the binding response (% of control) was inconclusive: 100%. For `C=CCN(c1ccccc1C(=O)NCC(=O)O)S(=O)(=O)c1ccc(C)cc1`, the binding response (% of control) was inconclusive: 110%. With `NCCc1nnc(SCc2ccccc2Cl)o1` the binding response (% of control) was inconclusive: 50.4%. For `Cc1ccc(S(=O)(=O)Nc2nc3ccccc3nc2NCC2CCCO2)cc1C` (stereo unspecified), the binding response (% of control) was inconclusive: 23.2%. In the case of `O=C(O)c1ccc(N/N=C/c2cn(Cc3ccc(F)cc3)c3ccccc23)cc1`, the binding response (% of control) is reported as inconclusive: 64.2%. With `COc1ccc(N(CC(=O)NCCC2=CCCCC2)S(=O)(=O)c2ccccc2)cc1OC` the binding response (% of control) was inconclusive: 114%. For `COCCNc1c(-c2cc3ccc(C)c(C)c3[nH]c2=O)nc2ccccn12`, the binding response (% of control) was inactive: 98.1%. In the case of `COc1ccccc1NC(=O)CCc1c(C)nc2c(-c3ccc(F)cc3)c(C)nn2c1C`, the binding response (% of control) is reported as inconclusive: 86.5%. `C=C(C)C(=O)Nc1cccc(C2=NOC3(C2)C[C@@H](C(N)=O)N(C(=O)c2ccc(Cl)cc2)C3)c1` (stereo partly specified) was tested, and the binding response (% of control) was inconclusive: 107%. With `COc1ccc(-c2ccc(/C=C(\NC(=O)c3ccccc3)C(=O)N3CCOCC3)o2)cc1` the binding response (% of control) was inactive: 98.1%. For `O=C(CN1c2ccccc2Sc2ccccc21)N/N=C/c1ccccc1`, the binding response (% of control) was inconclusive: 55.8%. With `CC(=O)/C(=C\N(C)C)Sc1ccc(C)cc1` the binding response (% of control) was inconclusive: 104%. With `O=C(NCc1ccco1)Nc1ccc([N+](=O)[O-])cc1` the binding response (% of control) was inconclusive: 100%. For `Cc1ccc(S(=O)(=O)N2CCC[C@H]2C(=O)OCC(=O)c2ccc3c(c2)NC(=O)CO3)cc1`, the binding response (% of control) was inconclusive: 122%. With `COc1ccc(C(=O)c2nccc3ccccc23)cc1` the binding response (% of control) was inconclusive: 102%. For `COCC(C)NS(=O)(=O)c1ccccc1` (stereo unspecified), the binding response (% of control) was inconclusive: 110%. For `COc1cc2c(cc1OC)C(c1cccs1)N(C(=O)c1cccc(S(=O)(=O)N(C)C)c1)CC2` (stereo unspecified), the binding response (% of control) was inconclusive: -216%.
